Reference: paper PMC7819943, “Rice protein-binding microarrays: a tool to detect cis-acting elements near promoter regions in rice”
The list shows a part of the results.

Target: T1, OsSMF1 (Oryza sativa, UniProt Q6ZLB0 1-436)
T1 sequence: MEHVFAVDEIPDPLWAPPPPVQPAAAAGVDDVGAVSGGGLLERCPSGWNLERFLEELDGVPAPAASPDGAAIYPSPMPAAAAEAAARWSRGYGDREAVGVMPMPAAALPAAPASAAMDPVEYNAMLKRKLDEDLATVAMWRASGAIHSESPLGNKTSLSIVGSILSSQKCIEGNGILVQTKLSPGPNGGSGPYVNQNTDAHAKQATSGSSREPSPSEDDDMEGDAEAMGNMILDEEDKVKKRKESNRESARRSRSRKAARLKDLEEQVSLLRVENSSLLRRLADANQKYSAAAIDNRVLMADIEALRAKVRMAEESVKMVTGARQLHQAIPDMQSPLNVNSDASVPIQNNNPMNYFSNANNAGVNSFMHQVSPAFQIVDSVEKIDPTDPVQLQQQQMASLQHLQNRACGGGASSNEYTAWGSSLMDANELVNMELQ
Test: protein-binding microarray (RPBM); PBS, 2% BSA, 51.3 ng/ul salmon testes DNA, 50 uM zinc acetate, 200 nM TF, 25 C, 1 h; high values mean tight binding
Conditions: protein: recombinant; tags: N-terminal polyhistidine and DsRed monomer fusion (pET32a); chain copies: 2; label: CyDye5-dUTP incorporated in the synthesized complementary strand; 3' TTTTT single-stranded linker to array surface; dsDNA, one strand shown
How it was run: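 Polyhistidine-tagged DsRed fusions of transcription factors, joined at the N-terminus, were expressed in E. coli BL21-CodonPlus and isolated on Ni–NTA. They were incubated at 200 nM for 1 h at 25 °C on a custom Agilent array, double-stranded and BSA-blocked, in PBS with 2% BSA, salmon testes DNA and 50 µM zinc acetate. The binding signal is per-feature fluorescence intensity (arbitrary units) read on an Axon 4000B scanner after washing.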

Sequence	binding signal
GCACGGCGTGGCGGTCAATTATCGCCTCTACACCGTCTCGCGGAGTCACCTAGTGCAG	3190 fluorescence intensity (a.u.)
AACCAGCAACTGGGCCGTGCTGACGTAAGGCCCATACAACCGGAGTCACCTAGTGCAG	14800 fluorescence intensity (a.u.)
CATTCAGCCGACACGCCTCTCTCTCTCTCTCCGCTGCTGCCGGAGTCACCTAGTGCAG	3360 fluorescence intensity (a.u.)
GAAGCCAGCAGAGCAGACGAGGAAACCGAGGCTCCAGGGGCGGAGTCACCTAGTGCAG	14100 fluorescence intensity (a.u.)
TGCTGTCTGTTATGATACATCATACATAAGCTGACTGGATCGGAGTCACCTAGTGCAG	4650 fluorescence intensity (a.u.)
TTCATTAATTAATAATACTAGCCTAGTGGTGACACCACCCCGGAGTCACCTAGTGCAG	4060 fluorescence intensity (a.u.)
CCCACTGCCTCGCTGCTGACCTCGTGGCTTTGTTGGCCTCCGGAGTCACCTAGTGCAG	3550 fluorescence intensity (a.u.)
TAGATTTTAATATGCTTCGTCATGGACCACGAAATTAAATCGGAGTCACCTAGTGCAG	3150 fluorescence intensity (a.u.)
AGTCGCGACCCACTCCATCGGTCCCAACCCTCTGTCTTCTCGGAGTCACCTAGTGCAG	22700 fluorescence intensity (a.u.)
ACAGGTGGGGCTCACCTGTCGGCGTCCCGGGGAGAGAGGGCGGAGTCACCTAGTGCAG	3250 fluorescence intensity (a.u.)
ATTAATACCTGGTCCCACATGTCATACACACGCTGCGTCTCGGAGTCACCTAGTGCAG	3630 fluorescence intensity (a.u.)
CGCAACGACGTGGCTACCTCGATGCGTGACGTCCCTGGCCCGGAGTCACCTAGTGCAG	7230 fluorescence intensity (a.u.)
TTGCTAGTTGGTACAAAGTAAGCATGCAACACTTGTATGCCGGAGTCACCTAGTGCAG	42200 fluorescence intensity (a.u.)
AAGTTGTCTTCTCCAATCTCCACTCCCCACCCATCGATCACGGAGTCACCTAGTGCAG	12800 fluorescence intensity (a.u.)
AGAGGGGTGGCCTCACAAATGTGATGTGGTATGTTCCTATCGGAGTCACCTAGTGCAG	3900 fluorescence intensity (a.u.)
ACTTATCCTGCAACTGTACCTGCTCTGACACGACCATTCCCGGAGTCACCTAGTGCAG	3750 fluorescence intensity (a.u.)
AATGAGTAACTTTCTGCTTGTGTGTCACTCTACTCTTTGGCGGAGTCACCTAGTGCAG	5400 fluorescence intensity (a.u.)
GCTCAGCATCTTCGAATCCTCTTCCGCCGCCAGCATTCTCCGGAGTCACCTAGTGCAG	10600 fluorescence intensity (a.u.)
ACTGATCATCTCTCCGACTCACCAGTCACCACCACTTGTCCGGAGTCACCTAGTGCAG	3220 fluorescence intensity (a.u.)
GCTGATCGACACGTGTGCTAAGTATTACACACCTGGTAAGCGGAGTCACCTAGTGCAG	12800 fluorescence intensity (a.u.)
CACATTCGGCACCGCCCTCCGAAGCGCGACACGTGGCCGTCGGAGTCACCTAGTGCAG	13100 fluorescence intensity (a.u.)

Another view of some results above:

| Sequence | binding signal |
| --- | --- |
| GCACGGCGTGGCGGTCAATTATCGCCTCTACACCGTCTCGCGGAGTCACCTAGTGCAG | 3190 fluorescence intensity (a.u.) |
| AACCAGCAACTGGGCCGTGCTGACGTAAGGCCCATACAACCGGAGTCACCTAGTGCAG | 14800 fluorescence intensity (a.u.) |

More results:

Sequence	binding signal
CCGGCAAGCGGCGCGTGGCGAAGGTGATGACGGTGGACGGCGGAGTCACCTAGTGCAG	5350 fluorescence intensity (a.u.)
CCATTAACCAACCTCGCGTCATCTCTCCCATCTCCCATATCGGAGTCACCTAGTGCAG	3220 fluorescence intensity (a.u.)
AGTAATACTCAAGGAAAAGGAGATGTCAGTCACGGTCACACGGAGTCACCTAGTGCAG	3220 fluorescence intensity (a.u.)
TCTAATTAGCTAGGTCCATTGATTCATCATCATCTCCATTCGGAGTCACCTAGTGCAG	4260 fluorescence intensity (a.u.)
ATAAAGTCTTTAGACCGTCCTATTTGACCCAGATAATATTCGGAGTCACCTAGTGCAG	3730 fluorescence intensity (a.u.)
CCTCACTCTCGTGGGCTCACCACCTCACCTCGCTATAAGTCGGAGTCACCTAGTGCAG	3340 fluorescence intensity (a.u.)
AACGAATCTTTTAAGCTTAATTGCGTCATGATTTGACAATCGGAGTCACCTAGTGCAG	3960 fluorescence intensity (a.u.)
GTTGTCAGTTGGATAGAACCAGTCCAGGAACGTGTGGCCCCGGAGTCACCTAGTGCAG	3240 fluorescence intensity (a.u.)
CTAGCTTAATCTTTCTTCGTTGTTCTACATCCTGCTAGTTCGGAGTCACCTAGTGCAG	20600 fluorescence intensity (a.u.)
TTATTAGTAGTCTCCTTGGATCAGGTGGAGCTTGCTTGTTCGGAGTCACCTAGTGCAG	3610 fluorescence intensity (a.u.)
CTGAAACCAACATCCAAGTCATCATGTCCAAGATGTCTCCCGGAGTCACCTAGTGCAG	6640 fluorescence intensity (a.u.)
ACCATACGGTGGGCGGCGACAAAGGCGACGCGGCGTGTTTCGGAGTCACCTAGTGCAG	4160 fluorescence intensity (a.u.)
GTGCGACACCTACCTGTCGCTGACCATGGTGATCCGCTTCCGGAGTCACCTAGTGCAG	3610 fluorescence intensity (a.u.)
TCAGGAACTGGTCGGTGAAGTGCGGCCACGCCACCACCGGCGGAGTCACCTAGTGCAG	3370 fluorescence intensity (a.u.)
TCGACGAATATATAATTAGTCCCTGTCCCACGTGCCATTTCGGAGTCACCTAGTGCAG	5070 fluorescence intensity (a.u.)
GCCGTGCAATGACACTAGCCATTGTGACTGGCCTAATTGCCGGAGTCACCTAGTGCAG	15200 fluorescence intensity (a.u.)
TTGAATGCTTTGTATCGTCGTCATCATCAGTGAAGGCTACCGGAGTCACCTAGTGCAG	3510 fluorescence intensity (a.u.)
TTTTATTTCATTATATGATCCCATCAAATATAAATTAGCACGGAGTCACCTAGTGCAG	48500 fluorescence intensity (a.u.)
AGAGAGGGAGGGCAGAGGCCTTTGGTGTCCCTTCCAGTCACGGAGTCACCTAGTGCAG	3200 fluorescence intensity (a.u.)
TTGTTGATTTGTGCCAGTTTTCTCCTATTTCAGTTAGTAGCGGAGTCACCTAGTGCAG	3400 fluorescence intensity (a.u.)
TGGTGGGTTTCGGGTCCGCGCCTGCGCCGATGCGGCGATGCGGAGTCACCTAGTGCAG	18200 fluorescence intensity (a.u.)
